The results in this text go back to PMC4104028.

This assay has as its target GFP-WIPI2b. The assay is described as follows: co-IP; lysates of HEK293A cells expressing GFP-tagged WIPI proteins mixed with lysates of HEK293A cells expressing FLAG-Atg16L1, its mutants or Atg16L2; GFP-TRAP; immunoblot.

Results are given in words; binding and its absence hold for the method and conditions named. In cells and extracts the contact can be indirect. Where a sequence is shown, tags or fusion partners need not be part of it.

B1: FLAG-Atg16L2 (protein, UniProt Q6KAU8 1-623)
chain: MAGPGAPCDPCAPAAVWKRHIVRQLRHRDRTQKALFLELVPAYNHLLEKAELLAKFSEKLKSEPKDAISTRHEDWREEVSGTGPDQVSSPASLRVKWQQEKKGLQLVCGEMAYQVVKKSAALDTLQSQLEERQDRLEALQACVVQLQEARAQQSRQLEERQAENAAQREAYETLLQQAVHQEAALRRLQEEARDLLEQLVQRKARAAAERNLRNERRERANQALVSQELKKAAKRTVSISEIPNTLEDGTKEETVALAPAALPEFSESETCEKWKRPFRSASATSLTLSRCVDVVKGLLDFKKRRGHSVGGAPEQRYQSIPVCVSAQIPSQAQDVLDAHLSEVNAVCFGPNSSLLATGGADRLIHLWNVVGGRLEANQTLEGAGGSITSVDFDPSGSQVLAATYNQAAQLWKVGETQSKETLSGHKDKVTAAKFKLTRHQAVTGSRDRTVKEWDLGRAYCSRTINVLSYCNDVVCGDHIIISGHNDQKIRFWDSRGPHCIQVIPVQGRVTSLHLSYDQLHLLSCSRDNTLKVIDLRISNIRQVFRADGFKCSSDWTKAVFSPDRSYALAGSSNGDLYIWDVNTGKLETSLQGPHCTAVNAVAWCFSGNHVVSVDQGRKVVLWH
For B1, the binding entry is “no binding”.
